No constants are given. Whether binding was seen depends on the method and setting. Some binding calls cover weakened binding; strength is not graded here. For some of these results: Tags and fused reporters may be left off the sequences shown.
Tests used:
[1] = biological target: T1, GST-K3 (GST-tagged p27 PxxP peptide K3) (human); assay: phage-ELISA on immobilised GST-K3
T1 sequence: GSVEQTPKKPGLRRRQ

Chains of the proteins cited; added tags and fusions are not shown. Residues count along the entry.
UniProt P42685, residues 42-110: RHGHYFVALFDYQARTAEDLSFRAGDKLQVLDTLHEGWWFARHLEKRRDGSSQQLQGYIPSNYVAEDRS
UniProt P07947, residues 91-152: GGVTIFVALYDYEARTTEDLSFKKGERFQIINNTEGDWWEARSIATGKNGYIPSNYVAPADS

[2] = biological target: recombinantly produced His-tagged p27 (full-length p27) (human) (UniProt P46527); assay: phage-ELISA, SH3 phage on immobilised His-p27
[3] = biological target: recombinantly produced His-tagged p27 (full-length p27) (human) (UniProt P46527); assay: phage-ELISA
[4] = biological target: GST (GST domain expressed in the absence of any p27 sequence) [GST: P08515]; assay: phage-ELISA on immobilised GST

Row | Substance | binding [1] | binding [2] | binding [3] | binding [4]
1 | Abl SH3 domain (displayed on phage) (from UniProt P00519 61-121) | binds | – | – | –
2 | Brk SH3 domain (displayed on phage) (from UniProt Q13882 12-70) | binds | binds | binds | –
3 | Frk SH3 domain (displayed on phage) (from UniProt P42685 42-110) | – | binds | – | binds
4 | Yes SH3 domain (displayed on phage) (from UniProt P07947 91-152) | binds | – | – | –
